Results on one molecule are retold here after PMC6479836, “Interaction of Nerve Growth Factor β with Adiponectin and SPARC Oppositely Modulates its Biological Activity” (International Journal of Molecular Sciences, 2019).

Results are given in words; binding and its absence hold for the method and conditions named.

The experiment concerns the target T1, Recombinant murine full-length adiponectin (murine) (UniProt Q60994).
T1 sequence: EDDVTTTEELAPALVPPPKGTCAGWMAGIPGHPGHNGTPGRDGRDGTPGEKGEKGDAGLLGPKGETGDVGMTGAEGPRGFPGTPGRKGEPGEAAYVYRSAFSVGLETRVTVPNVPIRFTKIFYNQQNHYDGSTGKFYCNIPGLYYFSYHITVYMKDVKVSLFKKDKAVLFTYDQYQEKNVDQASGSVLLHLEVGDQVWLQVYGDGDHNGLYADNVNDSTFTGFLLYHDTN
Briefly: SPR; BIAcore X; full length adiponectin immobilised on CM5 chip; boiled (denatured) NGFβ as analyte; both purified. (In SPR one partner is held on a chip, and binding of the other changes the refractive index at the surface.)

B1: Nerve growth factor β (NGFβ) from mouse submaxillary glands (ligand, UniProt P01139 122-241, looked up)
chain: SSTHPVFHMGEFSVCDSVSVWVGDKTTATDIKGKEVTVLAEVNINNSVFRQYFFETKCRASNPVESGCRGIDSKHWNSYCTTTHTFVKALTTDEKQAAWRFIRIDTACVCVLSRKATRRG
notes: beta-nerve growth factor, mouse, the beta chain from submaxillary glands; The same protein was also tested after boiling (denatured), as a control; source: from mouse submaxillary glands; bought: Alomone Labs
Consider B1, for which the binding result was “no binding (condition: NGFβ denatured by boiling)”.
